# In PubChem BioAssay AID2685 (National Center for Advancing Translational Sciences (NCATS), 2010):
# The other results are listed elsewhere or left out. These are further read-outs of the screen, such as a control signal, another cell line or another target. No call is given for them. Most of these compounds were active or inconclusive in the main read-out, so they are no random draw. Potencies come from curve fits of mixed quality, noted in brackets.
# Test: qHTS Assay for Lipid Storage Modulators in Drosophila S3 Cells;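 as to cell number change: cells counted by Cell Tracker Red CMTPX staining in the red channel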
# Conditions: BODIPY lipid droplet fluorescence, 18-24 h; for cell number change: measured here: cell count max response, cells fed with added oleic acid
# Outline: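 Drosophila S3 cells got compounds at several concentrations plus oleic acid (400 uM solution). Laser-scanning cytometry with 488 nm excitation read lipid droplets at 500-530 nm and cells at 575-640 nm. Percent activity was relative to 20 uM Triacsin C.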
# [1] = measured here: cell number channel AC50, cells fed with added oleic acid
# [2] = measured here: lipid fluorescence (Fed channel) AC50, cells fed with added oleic acid
SMILES,cell number change [%],AC50 [1],AC50 [2]
O=C(NCc1ccc2c(c1)OCO2)c1ccc(N2C(=O)C3CCCCC3C2=O)cc1 (stereo not given),65.5,"23.1 µM [rising, single point]",
O=C(c1ccccc1F)N1C(=O)c2cccc3cccc1c23,8.66,,"3.55 µM [rising, partial curve, poor fit]"
CN1CCN(c2ccc(Cl)cc2NC(=O)CN2C(=O)NC(C)(c3ccccc3)C2=O)CC1 (stereo not given),,,"6.51 µM [falling, single point]"
CC(=O)N1c2ccc(S(=O)(=O)N3CCCC(C(=O)NCc4ccc(Cl)cc4)C3)cc2CC1C (stereo not given),-33.8,"4.61 µM [falling, partial curve]","29.1 µM [falling, single point]"
CN(C)C1(CNC(=O)C2CCN(S(=O)(=O)c3cccc(C(F)(F)F)c3)CC2)CCCCC1,30,,"29.1 µM [rising, single point]"
Nc1nc(SCc2ccc(Cl)cc2Cl)n[nH]1,22.5,"0.164 µM [rising, full curve, poor fit]","0.13 µM [rising, full curve, poor fit]"
CC(C)c1ccc(N2C=Nc3ccc(C(C)C)cc3C2)cc1,-37.4,,"11.6 µM [falling, partial curve]"
N#CCCC(CCC#N)(CCC#N)c1cc[n+](CCc2ccccn2)cc1,-23.4,,"18.4 µM [falling, single point]"
Cc1ccc(C(=O)CCC(=O)N(C)CC(=O)Nc2c(Cl)cccc2Cl)cc1,43,"8.2 µM [rising, partial curve]","4.11 µM [rising, partial curve, poor fit]"
Cc1ccc(C(C)C)c(OCC(=O)N/N=C/C2CCCCC2)c1,,"6.51 µM [rising, single point]",
CCOC(=O)C1=C(C)N=c2s/c(=C/c3ccc(OCC(=O)O)cc3)c(=O)n2C1c1ccc(OC)cc1OC (stereo not given),,,"23.1 µM [falling, single point]"
O=C(NCCN1CCOCC1)C1CC(=O)N(c2ccc(F)c(Cl)c2)C1 (stereo not given),,,"0.58 µM [falling, single point]"
CC(=O)Nc1ccc(S(=O)(=O)NC(C)C(=O)OCCOc2ccc(F)cc2)cc1 (stereo not given),-8.02,,
O=C(Cc1ccccc1)N/N=C/c1cc(Br)cc(Cl)c1O,12.1,,
COc1ccc(-c2nnc(SCC(=O)NC3CC3)o2)c(OC)c1,-68,"5.8 µM [falling, partial curve, poor fit]",
CC12COC3(C(=O)Nc4ccc5ccccc5c4)CC1CCC32C (stereo not given),81.3,,
O=C(CSc1nc(-c2ccccc2)cc(=O)[nH]1)NCc1ccc2c(c1)OCO2,9.4,,
COc1ccc(C(=O)N(Cc2ccccc2)c2cccc(C)c2)c(OC)c1OC,27,,
CC(=O)Nc1cccc(NC(=O)CS(=O)(=O)c2cn(CC(=O)N3CCOCC3)c3ccccc23)c1,-19.6,"0.103 µM [falling, full curve, poor fit]",
CN(C)CCNC(=O)c1ccccc1,-34.7,"16.4 µM [falling, single point]",

SMILES,cell number change [%],AC50 [1],AC50 [2]
O=C(CS(=O)(=O)c1cn(Cc2cccc(F)c2)c2ccccc12)N1CCOCC1,-0.871,,"6.51 µM [falling, single point]"
CN(C)C(=C(C#N)C#N)N1CCN(c2ccc(Cl)c(Cl)c2)CC1,-15.2,,"32.6 µM [falling, single point]"
Cc1ccc(NC(=O)C2CCCN2S(=O)(=O)c2cccc3cccnc23)c(C)c1 (stereo not given),-13.5,,
COc1ccc(C2CC(c3ccc(F)cc3)Nc3nc(N)nn32)cc1 (stereo not given),11.3,,"0.103 µM [rising, partial curve, poor fit]"
COc1ccc(CCC(=O)Nc2ccc(N3CCOCC3)cc2)cc1,,"6.51 µM [falling, single point]",
CCCOc1ccc(C2C(=O)N(C3CCCCCC3)CC(=O)N2Cc2ccco2)cc1OC (stereo not given),91.6,"20.6 µM [rising, partial curve]",
CC(C)CNC(=O)CN1C(=O)NC(Cc2c[nH]c3ccccc23)C1=O (stereo not given),-30.6,"23.1 µM [falling, single point]",
O=C(O)c1[nH]nc2c1COc1ccccc1-2,-146,"25.9 µM [falling, partial curve]","25.9 µM [falling, partial curve]"
Cc1cc(Br)ccc1NC(=O)CNC(=O)COc1ccccc1C,25,,
CC(C)(C)c1ccc(NC(=O)N2CCCN(c3ccc([N+](=O)[O-])cn3)CC2)cc1,-26.6,,"23.1 µM [falling, single point]"
COCCN(CC(=O)NCC1CCCO1)C(=O)CCC(=O)Nc1cc(C)on1 (stereo not given),5.52,,"0.0731 µM [falling, full curve, poor fit]"
O=S(=O)(Nc1ncccn1)c1ccc(NC(=S)Nc2ccccc2)cc1,90.9,"29.1 µM [rising, single point]","25.9 µM [rising, partial curve]"
Cn1c2ccccc2c(=O)c2cc(C#CC3(O)CCCCC3)ccc21,-7.49,,"18.4 µM [falling, single point]"
CC1CCN(C(=S)c2ccc(O)cc2)CC1,16,,"0.00517 µM [rising, full curve, poor fit]"
COc1ccc(NC(=O)COc2ccc(-n3cnnn3)cc2)cc1OC,-19.7,,"8.2 µM [falling, partial curve]"
CC(C)N1CCc2c(sc(NC(=O)c3ccc(S(=O)(=O)N(C)CC4CCCO4)cc3)c2C(N)=O)C1 (stereo not given),,,"5.17 µM [falling, full curve]"
CC(C)OC(=O)c1cc(NC(=O)c2nn(C)cc2Br)cc(C(=O)OC(C)C)c1,-0.123,,"0.58 µM [rising, full curve]"
COCCNC(=O)CN1CCC(NC(=O)Nc2ccc(C(F)(F)F)cc2)CC1,,,"0.651 µM [falling, single point]"
O=C1NCC(=O)N(Cc2ccccc2)/C1=C/c1ccccc1,7.43,,
Cn1c(/C(C#N)=C/c2cccc(O)c2)nc2ccccc21,-14,,"14.6 µM [falling, single point]"

# Nothing new here: entries from further up.
SMILES,cell number change [%],AC50 [1],AC50 [2]
CN(C)C(=C(C#N)C#N)N1CCN(c2ccc(Cl)c(Cl)c2)CC1,-15.2,,"32.6 µM [falling, single point]"
Cc1ccc(NC(=O)C2CCCN2S(=O)(=O)c2cccc3cccnc23)c(C)c1 (stereo not given),-13.5,,
